From the supplement of paper PMC12819154, “High-throughput peptide-centric local stability assay extends protein–ligand identification to membrane proteins, tissues and bacteria” (Nature Structural & Molecular Biology, 2025)
Some of the results follow. Most entries show no effect beyond the scatter of the controls.

The chains behind the UniProt entries cited, without tags or fusion partners. Where a name states a change or a piece, a line headed by the entry shows the natural chain unless it says otherwise.
UniProt Q6P1H6: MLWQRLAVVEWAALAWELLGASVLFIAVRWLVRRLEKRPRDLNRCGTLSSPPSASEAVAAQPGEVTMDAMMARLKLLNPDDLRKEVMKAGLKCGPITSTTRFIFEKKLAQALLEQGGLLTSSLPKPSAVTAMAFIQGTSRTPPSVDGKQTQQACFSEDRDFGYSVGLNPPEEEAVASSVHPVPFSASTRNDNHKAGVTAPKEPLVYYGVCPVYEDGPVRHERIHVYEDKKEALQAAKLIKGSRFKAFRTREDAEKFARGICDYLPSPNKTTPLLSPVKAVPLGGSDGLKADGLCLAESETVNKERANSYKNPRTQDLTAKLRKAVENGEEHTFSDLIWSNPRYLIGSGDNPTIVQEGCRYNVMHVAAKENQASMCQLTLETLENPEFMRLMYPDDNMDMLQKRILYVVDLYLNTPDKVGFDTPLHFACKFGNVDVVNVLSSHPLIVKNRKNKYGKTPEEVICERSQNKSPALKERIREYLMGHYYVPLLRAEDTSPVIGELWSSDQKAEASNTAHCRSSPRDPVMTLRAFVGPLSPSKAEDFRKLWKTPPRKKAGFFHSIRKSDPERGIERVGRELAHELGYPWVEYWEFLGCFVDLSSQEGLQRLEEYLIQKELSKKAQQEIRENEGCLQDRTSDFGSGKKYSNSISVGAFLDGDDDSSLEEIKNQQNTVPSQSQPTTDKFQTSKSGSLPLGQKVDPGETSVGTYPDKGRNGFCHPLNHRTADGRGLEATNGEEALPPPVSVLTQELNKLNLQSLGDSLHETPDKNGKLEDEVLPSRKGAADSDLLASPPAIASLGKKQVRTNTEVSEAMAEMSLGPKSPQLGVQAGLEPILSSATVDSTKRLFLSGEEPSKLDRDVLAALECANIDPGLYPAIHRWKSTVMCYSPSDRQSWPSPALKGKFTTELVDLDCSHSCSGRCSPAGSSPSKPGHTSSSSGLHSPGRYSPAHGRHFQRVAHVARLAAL
UniProt Q80VP1: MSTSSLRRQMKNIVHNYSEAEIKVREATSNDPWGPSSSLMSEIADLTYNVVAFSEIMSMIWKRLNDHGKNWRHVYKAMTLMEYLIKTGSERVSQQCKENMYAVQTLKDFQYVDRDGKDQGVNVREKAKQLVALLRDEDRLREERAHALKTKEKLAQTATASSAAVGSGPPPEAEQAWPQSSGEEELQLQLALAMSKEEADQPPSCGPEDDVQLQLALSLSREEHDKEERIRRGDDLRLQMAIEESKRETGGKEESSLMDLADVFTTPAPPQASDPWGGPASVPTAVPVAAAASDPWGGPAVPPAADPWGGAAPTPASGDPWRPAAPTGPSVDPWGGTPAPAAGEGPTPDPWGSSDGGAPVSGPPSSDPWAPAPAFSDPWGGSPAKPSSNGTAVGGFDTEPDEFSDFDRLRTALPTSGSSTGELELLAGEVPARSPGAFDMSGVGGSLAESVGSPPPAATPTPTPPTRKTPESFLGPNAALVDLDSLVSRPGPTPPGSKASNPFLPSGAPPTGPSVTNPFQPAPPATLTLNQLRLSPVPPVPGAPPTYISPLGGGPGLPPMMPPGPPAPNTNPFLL
UniProt Q80VP5: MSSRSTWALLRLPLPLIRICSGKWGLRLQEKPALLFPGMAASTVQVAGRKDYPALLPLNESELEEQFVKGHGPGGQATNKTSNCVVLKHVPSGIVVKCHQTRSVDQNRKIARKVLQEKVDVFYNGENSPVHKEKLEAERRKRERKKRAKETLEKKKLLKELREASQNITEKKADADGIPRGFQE
UniProt Q8BFR4: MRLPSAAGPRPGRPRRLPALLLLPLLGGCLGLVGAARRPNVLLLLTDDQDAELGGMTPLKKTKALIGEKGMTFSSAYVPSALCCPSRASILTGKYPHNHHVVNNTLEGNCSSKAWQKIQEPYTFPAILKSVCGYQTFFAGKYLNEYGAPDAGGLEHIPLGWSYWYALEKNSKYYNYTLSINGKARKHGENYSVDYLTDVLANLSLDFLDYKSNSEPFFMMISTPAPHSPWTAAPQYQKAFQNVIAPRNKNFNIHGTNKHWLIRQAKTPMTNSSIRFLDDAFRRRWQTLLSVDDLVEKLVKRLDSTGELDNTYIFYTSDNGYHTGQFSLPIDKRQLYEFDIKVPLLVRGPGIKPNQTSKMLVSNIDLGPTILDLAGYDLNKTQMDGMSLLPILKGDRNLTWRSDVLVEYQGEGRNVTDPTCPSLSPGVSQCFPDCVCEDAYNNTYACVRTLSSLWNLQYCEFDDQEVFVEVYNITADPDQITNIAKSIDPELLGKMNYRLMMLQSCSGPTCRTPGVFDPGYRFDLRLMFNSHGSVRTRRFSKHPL
UniProt Q6TEK5: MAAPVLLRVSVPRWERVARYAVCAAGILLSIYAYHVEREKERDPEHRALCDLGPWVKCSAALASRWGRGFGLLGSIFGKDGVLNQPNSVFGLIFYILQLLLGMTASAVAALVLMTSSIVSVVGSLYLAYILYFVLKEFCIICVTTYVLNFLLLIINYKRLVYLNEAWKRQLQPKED
UniProt Q8BGC0: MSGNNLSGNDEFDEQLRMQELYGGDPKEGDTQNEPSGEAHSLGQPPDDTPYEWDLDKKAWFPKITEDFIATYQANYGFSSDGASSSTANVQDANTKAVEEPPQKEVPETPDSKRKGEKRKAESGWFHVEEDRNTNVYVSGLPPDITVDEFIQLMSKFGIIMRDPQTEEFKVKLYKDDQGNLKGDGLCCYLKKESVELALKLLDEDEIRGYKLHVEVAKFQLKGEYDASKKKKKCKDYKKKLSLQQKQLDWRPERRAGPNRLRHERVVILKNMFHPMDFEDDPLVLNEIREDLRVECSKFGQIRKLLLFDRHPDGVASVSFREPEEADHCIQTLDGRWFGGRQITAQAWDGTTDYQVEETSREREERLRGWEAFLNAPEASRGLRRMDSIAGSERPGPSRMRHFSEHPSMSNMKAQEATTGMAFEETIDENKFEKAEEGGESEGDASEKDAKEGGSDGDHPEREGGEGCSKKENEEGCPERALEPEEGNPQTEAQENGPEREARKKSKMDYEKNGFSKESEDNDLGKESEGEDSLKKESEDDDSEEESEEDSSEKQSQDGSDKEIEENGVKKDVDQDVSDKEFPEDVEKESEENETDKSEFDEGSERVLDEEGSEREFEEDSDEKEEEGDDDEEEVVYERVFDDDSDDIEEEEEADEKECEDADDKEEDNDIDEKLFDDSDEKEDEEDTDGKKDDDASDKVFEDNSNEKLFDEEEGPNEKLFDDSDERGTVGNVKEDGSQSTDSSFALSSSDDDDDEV
UniProt Q80Y55: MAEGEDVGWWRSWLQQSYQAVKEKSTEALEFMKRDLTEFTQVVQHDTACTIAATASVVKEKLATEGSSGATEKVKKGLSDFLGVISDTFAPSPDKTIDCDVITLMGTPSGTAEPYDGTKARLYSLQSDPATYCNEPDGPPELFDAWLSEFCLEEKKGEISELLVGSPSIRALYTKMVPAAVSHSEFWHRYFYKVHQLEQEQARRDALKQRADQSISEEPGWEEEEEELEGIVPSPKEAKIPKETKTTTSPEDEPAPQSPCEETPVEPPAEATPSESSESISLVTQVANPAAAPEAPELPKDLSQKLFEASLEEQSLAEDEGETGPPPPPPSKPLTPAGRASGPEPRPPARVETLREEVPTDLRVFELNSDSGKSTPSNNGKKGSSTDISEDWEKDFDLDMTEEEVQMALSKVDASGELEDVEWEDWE
UniProt Q8BGA9, whole entry: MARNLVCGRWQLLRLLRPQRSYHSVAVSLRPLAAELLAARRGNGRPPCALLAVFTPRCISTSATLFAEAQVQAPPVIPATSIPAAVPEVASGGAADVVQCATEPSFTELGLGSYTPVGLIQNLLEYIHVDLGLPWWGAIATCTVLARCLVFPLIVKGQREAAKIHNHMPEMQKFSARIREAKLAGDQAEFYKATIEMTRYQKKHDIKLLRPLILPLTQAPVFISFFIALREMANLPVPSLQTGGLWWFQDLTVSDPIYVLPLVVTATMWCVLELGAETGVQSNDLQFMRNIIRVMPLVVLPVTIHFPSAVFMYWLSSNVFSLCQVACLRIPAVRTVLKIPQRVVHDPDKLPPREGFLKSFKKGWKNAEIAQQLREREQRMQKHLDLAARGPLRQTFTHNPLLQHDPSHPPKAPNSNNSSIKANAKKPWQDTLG
UniProt Q80YC5: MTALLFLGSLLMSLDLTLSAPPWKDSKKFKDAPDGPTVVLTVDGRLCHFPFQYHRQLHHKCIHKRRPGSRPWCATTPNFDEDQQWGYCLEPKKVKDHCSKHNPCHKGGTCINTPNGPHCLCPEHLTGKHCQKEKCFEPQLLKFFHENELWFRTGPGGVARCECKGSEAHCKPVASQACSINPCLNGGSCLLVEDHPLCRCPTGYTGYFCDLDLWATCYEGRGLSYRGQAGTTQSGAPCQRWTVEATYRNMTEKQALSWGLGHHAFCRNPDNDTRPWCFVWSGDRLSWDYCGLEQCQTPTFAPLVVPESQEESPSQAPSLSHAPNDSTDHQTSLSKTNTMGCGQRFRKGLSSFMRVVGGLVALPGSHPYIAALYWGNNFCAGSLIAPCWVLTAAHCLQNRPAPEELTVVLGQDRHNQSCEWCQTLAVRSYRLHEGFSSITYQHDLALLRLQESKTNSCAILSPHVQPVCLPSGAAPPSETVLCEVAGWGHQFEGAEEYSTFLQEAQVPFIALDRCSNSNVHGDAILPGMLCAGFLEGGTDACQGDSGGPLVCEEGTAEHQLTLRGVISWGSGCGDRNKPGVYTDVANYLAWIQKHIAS
UniProt Q6P9Q6: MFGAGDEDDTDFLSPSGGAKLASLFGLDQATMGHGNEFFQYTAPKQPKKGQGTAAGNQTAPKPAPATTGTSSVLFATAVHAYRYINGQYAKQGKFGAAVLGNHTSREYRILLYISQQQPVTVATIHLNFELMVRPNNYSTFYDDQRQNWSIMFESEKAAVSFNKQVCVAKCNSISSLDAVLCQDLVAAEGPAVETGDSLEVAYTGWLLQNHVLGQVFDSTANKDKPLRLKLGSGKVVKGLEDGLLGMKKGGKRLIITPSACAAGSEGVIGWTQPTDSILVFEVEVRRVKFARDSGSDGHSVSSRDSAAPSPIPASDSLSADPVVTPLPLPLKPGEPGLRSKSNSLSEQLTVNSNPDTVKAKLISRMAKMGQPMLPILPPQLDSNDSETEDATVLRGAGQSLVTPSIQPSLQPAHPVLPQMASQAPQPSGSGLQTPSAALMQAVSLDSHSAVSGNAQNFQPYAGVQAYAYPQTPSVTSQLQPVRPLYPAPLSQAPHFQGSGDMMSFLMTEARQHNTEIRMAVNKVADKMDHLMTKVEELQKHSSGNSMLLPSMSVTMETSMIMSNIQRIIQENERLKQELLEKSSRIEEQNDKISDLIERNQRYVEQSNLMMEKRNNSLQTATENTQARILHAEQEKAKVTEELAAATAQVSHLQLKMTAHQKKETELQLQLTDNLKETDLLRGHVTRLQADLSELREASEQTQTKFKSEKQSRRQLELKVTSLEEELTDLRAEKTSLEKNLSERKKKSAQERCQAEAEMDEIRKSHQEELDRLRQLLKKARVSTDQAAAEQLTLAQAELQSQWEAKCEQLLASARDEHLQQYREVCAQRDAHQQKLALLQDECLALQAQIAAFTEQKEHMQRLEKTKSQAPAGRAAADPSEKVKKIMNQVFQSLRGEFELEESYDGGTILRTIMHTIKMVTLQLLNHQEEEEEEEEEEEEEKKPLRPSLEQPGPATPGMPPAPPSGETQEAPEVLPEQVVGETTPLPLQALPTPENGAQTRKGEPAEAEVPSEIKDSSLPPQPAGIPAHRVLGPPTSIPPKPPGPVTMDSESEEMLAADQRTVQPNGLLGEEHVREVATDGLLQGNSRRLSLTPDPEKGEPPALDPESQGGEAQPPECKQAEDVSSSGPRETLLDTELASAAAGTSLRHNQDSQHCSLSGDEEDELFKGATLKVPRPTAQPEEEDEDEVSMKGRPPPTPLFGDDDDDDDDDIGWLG
UniProt Q6PD19: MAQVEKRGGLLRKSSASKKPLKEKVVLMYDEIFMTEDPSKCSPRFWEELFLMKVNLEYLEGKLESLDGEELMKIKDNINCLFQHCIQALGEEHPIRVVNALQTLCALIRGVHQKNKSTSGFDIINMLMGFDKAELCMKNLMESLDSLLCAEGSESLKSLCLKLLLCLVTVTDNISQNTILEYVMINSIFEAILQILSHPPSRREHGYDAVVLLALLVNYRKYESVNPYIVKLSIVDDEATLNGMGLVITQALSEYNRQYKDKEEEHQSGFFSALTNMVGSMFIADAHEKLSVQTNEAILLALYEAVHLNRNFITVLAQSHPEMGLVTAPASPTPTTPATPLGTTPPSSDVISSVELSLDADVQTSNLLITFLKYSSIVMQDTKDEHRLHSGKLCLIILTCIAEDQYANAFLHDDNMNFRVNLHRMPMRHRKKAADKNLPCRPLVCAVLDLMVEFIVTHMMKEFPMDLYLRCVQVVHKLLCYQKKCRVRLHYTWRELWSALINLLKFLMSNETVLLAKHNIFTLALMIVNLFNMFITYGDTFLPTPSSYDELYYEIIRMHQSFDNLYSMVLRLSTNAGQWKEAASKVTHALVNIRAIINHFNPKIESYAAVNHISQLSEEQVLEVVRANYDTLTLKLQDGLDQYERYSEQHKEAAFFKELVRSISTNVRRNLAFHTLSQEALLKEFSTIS

The targets below were run with CN[C@@H]1C[C@H]2O[C@@](C)([C@@H]1OC)n1c3ccccc3c3c4c(c5c6ccccc6n2c5c31)C(=O)NC4 [staurosporine] (assay: log2 fold change of pooled soluble protein (PISA), ligand vs vehicle (log2 ratio); higher = more thermally stabilized). Conditions: ligand concentration: 20 uM; assay format: PISA pool 52.9/55.5/58.6 C.
In the case of UniProt Q78J03, the “log2 fold change of pooled soluble protein” value (shortened to “log2 fold change”) is reported as 0.103. UniProt Q80YR5 was tested, and the “log2 fold change” value was -0.0329. With UniProt Q71KT5 the “log2 fold change” value was 0.118. For UniProt Q6P1H6, the “log2 fold change” value was 0.0788. For UniProt Q6P8M1, the “log2 fold change” value was 0.146. In the case of UniProt Q80VP1, the “log2 fold change” value is reported as -0.042. For UniProt Q6P8I4, the “log2 fold change” value was 0.0463. In the case of UniProt Q80VP5, the “log2 fold change” value is reported as -0.0161. In the case of UniProt Q6PEE2, the “log2 fold change” value is reported as 0.0585. For UniProt Q80U93, the “log2 fold change” value was 0.0153. With UniProt Q8BGG9 the “log2 fold change” value was 0.0411. With UniProt Q8BFR4 the “log2 fold change” value was -0.0913. UniProt Q6TEK5 was tested, and the “log2 fold change” value was 0.0379. With UniProt Q8BGC0 the “log2 fold change” value was -0.167. For UniProt Q7TQI3, the “log2 fold change” value was 0.19. For UniProt Q8BG81, the “log2 fold change” value was 0.0553. With UniProt Q6ZPJ0 the “log2 fold change” value was -0.136. UniProt Q80Y55 was tested, and the “log2 fold change” value was -0.00829. In the case of UniProt Q8BFZ3, the “log2 fold change” value is reported as -0.476. For UniProt Q80WQ6, the “log2 fold change” value was 0.244. For UniProt Q6XVG2, the “log2 fold change” value was -0.00808. UniProt Q7TNS2 was tested, and the “log2 fold change” value was -0.23. For UniProt Q7TSG5, the “log2 fold change” value was 0.0379. For UniProt Q8BGA9, the “log2 fold change” value was -0.21. For UniProt Q80YC5, the “log2 fold change” value was 0.0796. For UniProt Q6PDG5, the “log2 fold change” value was -0.1. For UniProt Q6PGL7, the “log2 fold change” value was -0.0357. In the case of UniProt Q80TA6, the “log2 fold change” value is reported as -0.0545. For UniProt Q6P9Q6, the “log2 fold change” value was 0.0837. In the case of UniProt Q80U16, the “log2 fold change” value is reported as 0.0895. In the case of UniProt Q7TSH2, the “log2 fold change” value is reported as 0.417. UniProt Q6P069 was tested, and the “log2 fold change” value was -0.0982. For UniProt Q6ZWR6, the “log2 fold change” value was -0.097. For UniProt Q6ZWV7, the “log2 fold change” value was -0.298. For UniProt Q6PD19, the “log2 fold change” value was 0.112.
